Data from paper doi:10.1101/2025.03.13.643145 (bioRxiv, 2025).
Results are given in words; binding and its absence hold for the method and conditions named. Some results given as binding are weak or reduced against the parent protein; the word gives no strength. Tags and fused reporters may be left off the sequences shown.

Molecular target: T1, secreted phospholipase A2 type IIA (UniProt P14555)
T1 sequence: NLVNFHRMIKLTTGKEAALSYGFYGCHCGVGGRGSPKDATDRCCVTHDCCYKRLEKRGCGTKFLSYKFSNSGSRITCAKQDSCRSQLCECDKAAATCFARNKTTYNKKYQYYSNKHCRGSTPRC
Assay: ELISA

In the case of CRLAGIVQPNDGQSHVGSDNHYSASTTMC (disulfide linkage between C260 and C288 (cyclic)) [disulfide-linked cyclic site 2 peptide of integrin β3 (GST fusion protein)], the binding is reported as “binds”.
